Measured values as given in the supplement of paper PMC6078165.
The reference is the same well before dosing, and untreated signal decays as well.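 Labels refer to human fibroblasts, largely primary: uterine (C12385, HUF), lung (H6013), bone (Hs27A), adrenal (HADF), skin (WS1), plus mammary HMF and breast cancer-associated Hs343T. Cancer lines are basal-like or mesenchymal-like triple-negative breast cancer. The paper counts as hits responses shifting over 3x the replicate standard deviation. The tissue of the other fibroblasts is not given here.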

System: HCC1143
Assay: relative JC-1 red fluorescence (viability) vs pre-drug, coculture with fibroblast (fraction); higher = more viable cancer cells
Method: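 JC-1 labelled TNBC cells cocultured 1:1 (1,500 cells each) with CellTrace Violet stained primary or stromal fibroblasts in 384-well plates in FluoroBrite medium, treated with one of 42 anticancer drugs at 0.1, 1, 10 or 100 uM. JC-1 red fluorescence (mitochondrial integrity in cancer cells only) was read by plate reader every 8 h for 72 h. Values are normalised to each well's pre-drug value. The stock of one drug was tenfold lower, so its dose labels may be too high.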

CC[C@]1(O)C[C@@H]2CN(CCc3c([nH]c4ccccc34)[C@@](C(=O)OC)(c3cc4c(cc3OC)N(C)[C@H]3[C@@](O)(C(=O)OC)[C@H](OC(C)=O)[C@]5(CC)C=CCN6CC[C@]43[C@@H]65)C2)C1 [Vinblastine]
relative JC-1 red fluorescence
Conditions	8 h	16 h	24 h	32 h	40 h	48 h	56 h	64 h	72 h
0.1 µM, coculture fibroblast: C12385	0.825	0.767	0.718	0.669	0.61	0.583	0.554	0.518	0.509
0.1 µM, coculture fibroblast: H6013	0.797	0.788	0.768	0.773	0.739	0.738	0.725	0.717	0.687
0.1 µM, coculture fibroblast: H6019	0.816	0.769	0.742	0.7	0.668	0.658	0.623	0.596	0.578
0.1 µM, coculture fibroblast: H6076	0.8142	0.808	0.7769	0.7408	0.69112	0.681	0.664	0.642	0.6581
0.1 µM, coculture fibroblast: H6231	0.866	0.853	0.795	0.696	0.701	0.669	0.621	0.583	0.565
0.1 µM, coculture fibroblast: HADF	0.749	0.703	0.667	0.654	0.582	0.57	0.548	0.536	0.50784
0.1 µM, coculture fibroblast: HCFa	0.769	0.705	0.672	0.642	0.567	0.548	0.508	0.474	0.448
0.1 µM, coculture fibroblast: HCPF	0.798	0.788	0.725	0.659	0.6393	0.6137	0.5815	0.552	0.548
0.1 µM, coculture fibroblast: HHSteC	0.831	0.765	0.73	0.692	0.619	0.591	0.54	0.516	0.474
0.1 µM, coculture fibroblast: HMF	0.827	0.8091	0.734	0.698	0.637	0.605	0.571	0.544	0.526
0.1 µM, coculture fibroblast: HPFa	0.8862	0.807	0.781	0.687	0.639	0.61	0.56	0.532	0.515
0.1 µM, coculture fibroblast: HUF	0.869	0.808	0.764	0.71	0.657	0.633	0.59	0.564	0.546
0.1 µM, coculture fibroblast: Hs5	0.861	0.866	0.829	0.81	0.748	0.707	0.674	0.658	0.656
0.1 µM, coculture fibroblast: Hs27A	0.731	0.656	0.618	0.62	0.531	0.529	0.5	0.485	0.449
0.1 µM, coculture fibroblast: Hs343T	0.818	0.84	0.778	0.71	0.6676	0.618	0.565	0.54	0.518
0.1 µM, coculture fibroblast: WS1	0.851	0.793	0.743	0.676	0.615	0.581	0.539	0.524	0.506
1 µM, coculture fibroblast: C12385	0.8399	0.759	0.717	0.663	0.607	0.592	0.57	0.548	0.547
1 µM, coculture fibroblast: H6013	0.755	0.716	0.685	0.687	0.641	0.639	0.627	0.626	0.604
1 µM, coculture fibroblast: H6019	0.866	0.838	0.781	0.719	0.675	0.662	0.618	0.59	0.566
1 µM, coculture fibroblast: H6076	0.7848	0.755	0.739	0.7228	0.6664	0.669	0.6424	0.629	0.655
1 µM, coculture fibroblast: H6231	0.837	0.844	0.784	0.659	0.677	0.64	0.598	0.564	0.546
1 µM, coculture fibroblast: HADF	0.769	0.753	0.739	0.75	0.692	0.695	0.684	0.684	0.675
1 µM, coculture fibroblast: HCFa	0.7594	0.701	0.653	0.629	0.5645	0.545	0.5128	0.4864	0.4662
1 µM, coculture fibroblast: HCPF	0.815	0.8154	0.761	0.6655	0.679	0.652	0.615	0.586	0.586
1 µM, coculture fibroblast: HHSteC	0.8177	0.768	0.734	0.703	0.651	0.639	0.608	0.581	0.532
1 µM, coculture fibroblast: HMF	0.787	0.8025	0.7609	0.711	0.675	0.643	0.602	0.58	0.566
1 µM, coculture fibroblast: HPFa	0.905	0.817	0.786	0.677	0.625	0.602	0.555	0.543	0.529
1 µM, coculture fibroblast: HUF	0.8805	0.8144	0.778	0.715	0.671	0.646	0.6	0.575	0.554
1 µM, coculture fibroblast: Hs5	0.8445	0.857	0.816	0.775	0.718	0.6908	0.6594	0.65	0.647
1 µM, coculture fibroblast: Hs27A	0.745	0.678	0.67	0.7	0.592	0.593	0.569	0.564	0.567
1 µM, coculture fibroblast: Hs343T	0.7964	0.817	0.774	0.725	0.679	0.65	0.621	0.611	0.615
1 µM, coculture fibroblast: WS1	0.8121	0.7439	0.702	0.6344	0.567	0.546	0.522	0.507	0.506
10 µM, coculture fibroblast: C12385	0.857	0.812	0.773	0.72	0.677	0.637	0.612	0.577	0.56
10 µM, coculture fibroblast: H6013	0.722	0.681	0.659	0.672	0.594	0.582	0.561	0.544	0.5619
10 µM, coculture fibroblast: H6019	0.85	0.795	0.7623	0.713	0.694	0.6755	0.636	0.6122	0.591
10 µM, coculture fibroblast: H6076	0.7698	0.849	0.812	0.7109	0.723	0.689	0.652	0.62	0.6074
10 µM, coculture fibroblast: H6231	0.816	0.931	0.868	0.63	0.777	0.734	0.709	0.67	0.632
10 µM, coculture fibroblast: HADF	0.72138	0.6736	0.639	0.6609	0.543	0.512	0.4885	0.471	0.543
10 µM, coculture fibroblast: HCFa	0.738	0.671	0.642	0.649	0.566	0.539	0.516	0.494	0.544
10 µM, coculture fibroblast: HCPF	0.792	0.782	0.739	0.634	0.659	0.622	0.591	0.566	0.563
10 µM, coculture fibroblast: HHSteC	0.795	0.75	0.721	0.709	0.629	0.604	0.575	0.559	0.571
10 µM, coculture fibroblast: HMF	0.782	0.8248	0.775	0.6782	0.713	0.674	0.648	0.602	0.573
10 µM, coculture fibroblast: HPFa	0.924	0.885	–	0.7643	0.7333	0.707	0.661	0.6251	0.607
10 µM, coculture fibroblast: HUF	0.902	0.851	0.832	0.776	0.74	0.705	0.668	0.642	0.62
10 µM, coculture fibroblast: Hs5	0.7874	0.788	0.755	0.717	0.664	0.635	0.614	0.597	0.5974
10 µM, coculture fibroblast: Hs27A	0.672	0.601	0.561	0.603	0.464	0.428	0.411	0.395	0.499
10 µM, coculture fibroblast: Hs343T	0.84	0.947	0.916	0.803	0.87	0.832	0.781	0.78	0.732
10 µM, coculture fibroblast: WS1	0.8329	0.76551	0.7227	0.657	0.608	0.575	0.539	0.509	0.486
100 µM, coculture fibroblast: C12385	0.65	0.5163	0.389	0.277	0.174	0.142	0.109	0.079	0.0599
100 µM, coculture fibroblast: H6013	0.563	0.437	0.336	0.223	0.135	0.116	0.0793	0.0539	0.0264
100 µM, coculture fibroblast: H6019	0.813	0.677	0.569	0.417	0.296	0.227	0.159	0.103	0.0765
100 µM, coculture fibroblast: H6076	0.664	0.637	0.588	0.516	0.393	0.322	0.247	0.195	0.177
100 µM, coculture fibroblast: H6231	0.66	0.626	0.524	0.456	0.412	0.32	0.226	0.173	0.141
100 µM, coculture fibroblast: HADF	0.567	0.458	0.3804	0.284	0.135	0.0968	0.0515	0.0275	0.015
100 µM, coculture fibroblast: HCFa	0.652	0.523	0.445	0.352	0.24	0.199	0.141	0.108	0.0624
100 µM, coculture fibroblast: HCPF	0.702	0.699	0.617	0.501	0.432	0.361	0.279	0.224	0.186
100 µM, coculture fibroblast: HHSteC	0.748	0.647	0.562	0.456	0.288	0.23	0.155	0.119	0.0604
100 µM, coculture fibroblast: HMF	0.691	0.712	0.678	0.597	0.4828	0.381	0.262	0.199	0.159
100 µM, coculture fibroblast: HPFa	0.687	0.547	0.433	0.297	0.205	0.1732	0.12755	0.107	0.08637
100 µM, coculture fibroblast: HUF	0.763	0.548	0.41	0.318	0.249	0.198	0.131	0.0947	0.0953
100 µM, coculture fibroblast: Hs5	0.6986	0.681	0.561	0.461	0.322	0.26	0.213	0.169	0.143
100 µM, coculture fibroblast: Hs27A	0.526	0.455	0.378	0.335	0.231	0.227	0.177	0.149	0.0812
100 µM, coculture fibroblast: Hs343T	0.73	0.72	0.633	0.57	0.459	0.385	0.273	0.215	0.17
100 µM, coculture fibroblast: WS1	0.676	0.523	0.381	0.274	0.193	0.154	0.114	0.0896	0.0694
